The list is a part of this screen's results and no random one: it gathers tests that were run many times, whatever their T/C, doses with no T/C, and many T/C values between a quarter and a half above the control. Other doses and runs of a compound stand elsewhere. T/C is the treated group as % of the vehicle group. Some doses have a count of surviving animals in place of a T/C: the source holds a T/C of zero for them, seemingly a mark for toxic or unscored doses. Some survivor counts are full or nearly so, which does not show that the dose was tolerated: survival well below the control is almost never listed, so the zero probably covers shortened survival too. Survivors were counted at the toxicity check, usually on the fifth day, unless a day is given; later deaths do not show. Schedules are NCI's codes, read here as Q, the interval in days (D) or hours (H), X, the number of doses. Some entries hold several experiments; their values stand side by side, smallest first. Where survival is the endpoint, the PubChem record calls one and a half times the control and up active, and a quarter to a half above the control has no call in these data; cut-offs in other NCI protocols can differ. Some T/C values are followed by the survivors on the day toxicity was checked, most often the fifth; without a count, all were alive then. Some schedules carry Z or #; the key to these is not given.
System: L1210 leukemia ip in BDF1 mice, survival T/C
Assay: NCI In Vivo Anticancer Drug Screen. Data for tumor model L1210 Leukemia (intraperitoneal) in B6D2F1 (BDF1) mice
Settings: T/C endpoint: mean survival time, higher T/C = longer survival
[1] = dose: 0.18 mg/kg/injection, schedule: Q04DX002 (ip), vehicle: Klucel (hydroxypropylcellulose) (HPC)
[2] = dose: 0.37 mg/kg/injection, schedule: Q01DX009 (ip), vehicle: saline
[3] = dose: 0.37 mg/kg/injection, schedule: Q04DX002 (ip), vehicle: Klucel (hydroxypropylcellulose) (HPC)
[4] = dose: 3.0 mg/kg/injection, schedule: Q04DX002 (ip), vehicle: saline with Tween-80
[5] = dose: 100.0 mg/kg/injection, schedule: Q04DX002 (ip), vehicle: saline with Tween-80
[6] = dose: 200.0 mg/kg/injection, schedule: Q04DX002 (ip), vehicle: saline with Tween-80
[7] = dose: 400.0 mg/kg/injection, schedule: Q04DX002 (ip), vehicle: saline with Tween-80
[8] = dose: 100.0 mg/kg/injection, schedule: Q01DX009 (ip), vehicle: saline with Tween-80
[9] = dose: 200.0 mg/kg/injection, schedule: Q01DX009 (ip), vehicle: saline with Tween-80
[10] = dose: 400.0 mg/kg/injection, schedule: Q01DX009 (ip), vehicle: saline with Tween-80
[11] = dose: 400.0 mg/kg/injection, schedule: Q04DX003 (ip), vehicle: saline with Tween-80
[12] = dose: 400.0 mg/kg/injection, schedule: Q01DX001 (ip), vehicle: saline

COc1cc2c(c(OC)c1OC)-c1ccc(OC)c(=O)cc1[C@@H](NC(=O)CF)CC2
survivor count (dose: 0.03 mg/kg/injection, schedule: Q01DX009 (ip), vehicle: saline with Tween-80): 3 of 3
survivor count (dose: 0.06 mg/kg/injection, schedule: Q01DX009 (ip), vehicle: saline with Tween-80): 3 of 3
T/C (dose: 0.09 mg/kg/injection, schedule: Q01DX009 (ip), vehicle: saline): 128 % of control
survivor count (dose: 0.09 mg/kg/injection, schedule: Q04DX002 (ip), vehicle: Klucel (hydroxypropylcellulose) (HPC)): 2 of 3
survivor count (dose: 0.12 mg/kg/injection, schedule: Q01DX009 (ip), vehicle: saline with Tween-80): 3 of 3
T/C (dose: 0.18 mg/kg/injection, schedule: Q01DX009 (ip), vehicle: saline with Tween-80): 127 % of control
T/C [1]: 139 % of control
survivor count [1]: 0 of 3
survivor count (dose: 0.25 mg/kg/injection, schedule: Q01DX009 (ip), vehicle: saline with Tween-80): 0 of 3
T/C [2]: 131 % of control
survivor count [2]: 3 of 6
T/C [3]: 139 % of control
survivor count [3]: 0 of 3
survivor count (dose: 0.5 mg/kg/injection, schedule: Q01DX009 (ip), vehicle: saline with Tween-80): 0 of 3
survivor count (dose: 0.75 mg/kg/injection, schedule: Q01DX009 (ip), vehicle: saline with Tween-80): 0 of 10
survivor count (dose: 0.75 mg/kg/injection, schedule: Q01DX009 (ip), vehicle: saline): 0 of 6 and 1 of 6
survivor count (dose: 0.75 mg/kg/injection, schedule: Q04DX002 (ip), vehicle: Klucel (hydroxypropylcellulose) (HPC)): 0 of 3
survivor count (dose: 0.75 mg/kg/injection, schedule: Q04DX002 (ip), vehicle: saline with Tween-80): 3 of 3
survivor count (dose: 1.0 mg/kg/injection, schedule: Q01DX009 (ip), vehicle: saline with Tween-80): 0 of 3
survivor count (dose: 1.12 mg/kg/injection, schedule: Q01DX001 (ip), vehicle: saline with Tween-80): 5 of 10
survivor count (dose: 1.12 mg/kg/injection, schedule: Q01DX009 (ip), vehicle: saline with Tween-80): 0 of 10
survivor count (dose: 1.12 mg/kg/injection, schedule: Q01DX009 (ip), vehicle: saline): 1 of 6
survivor count (dose: 1.12 mg/kg/injection, schedule: Q04DX003 (ip), vehicle: saline with Tween-80): 6 of 10
survivor count (dose: 1.5 mg/kg/injection, schedule: Q04DX002 (ip), vehicle: Klucel (hydroxypropylcellulose) (HPC)): 1 of 3
survivor count (dose: 1.5 mg/kg/injection, schedule: Q04DX002 (ip), vehicle: saline with Tween-80): 2 of 3
survivor count (dose: 3.0 mg/kg/injection, schedule: Q04DX002 (ip), vehicle: Klucel (hydroxypropylcellulose) (HPC)): 1 of 3
T/C [4]: 146 % of control
survivor count [4]: 0 of 3
survivor count (dose: 6.0 mg/kg/injection, schedule: Q04DX002 (ip), vehicle: Klucel (hydroxypropylcellulose) (HPC)): 0 of 3
survivor count (dose: 6.0 mg/kg/injection, schedule: Q04DX002 (ip), vehicle: saline with Tween-80): 0 of 3
survivor count (dose: 12.5 mg/kg/injection, schedule: Q04DX002 (ip), vehicle: saline with Tween-80): 0 of 3
survivor count (dose: 25.0 mg/kg/injection, schedule: Q04DX002 (ip), vehicle: saline with Tween-80): 0 of 3
survivor count (dose: 50.0 mg/kg/injection, schedule: Q04DX002 (ip), vehicle: saline with Tween-80): 0 of 3
survivor count [5]: 0 of 3
survivor count [6]: 0 of 3
survivor count [7]: 0 of 3

OC1CC2CCC(C1)N2CCCN1c2ccccc2Sc2ccc(Cl)cc21 (stereo unspecified)
T/C [8]: 128 % of control
survivor count [8]: 4 of 6
survivor count [9]: 0 of 6
T/C (dose: 200.0 mg/kg/injection, schedule: Q04DX003 (ip), vehicle: saline with Tween-80): 125 and 125 % of control [5 of 6 alive]
survivor count (dose: 300.0 mg/kg/injection, schedule: Q04DX003 (ip), vehicle: saline with Tween-80): 1 of 6
survivor count [10]: 0 of 6

CCOC(=O)c1ccc(N(CCOS(C)(=O)=O)CCOS(C)(=O)=O)cc1
T/C (dose: 25.0 mg/kg/injection, schedule: Q01DX015 (ip), vehicle: saline): 132 % of control [5 of 6 alive]
T/C (dose: 50.0 mg/kg/injection, schedule: Q01DX015 (ip), vehicle: saline): 125 % of control [4 of 6 alive]
T/C (dose: 150.0 mg/kg/injection, schedule: Q01DX001 (ip), vehicle: saline): 125 % of control
survivor count (dose: 200.0 mg/kg/injection, schedule: Q01DX015 (ip), vehicle: saline): 1 of 6
T/C (dose: 800.0 mg/kg/injection, schedule: Q01DX001 (ip), vehicle: saline): 142 % of control

CCCCCCCCCCNC(=O)C[n+]1cccc(C(=O)Nc2ccccc2)c1
survivor count (dose: 50.0 mg/kg/injection, schedule: Q04DX003 (ip), vehicle: saline): 4 of 6
survivor count (dose: 100.0 mg/kg/injection, schedule: Q04DX003 (ip), vehicle: acetone): 0 of 6
survivor count (dose: 200.0 mg/kg/injection, schedule: Q04DX003 (ip), vehicle: acetone): 1 of 6
survivor count (dose: 400.0 mg/kg/injection, schedule: Q04DX003 (ip), vehicle: acetone): 0 of 6

NC(=O)OCC1OC(n2ccc(=O)[nH]c2=O)C(O)C1O (stereo unspecified)
T/C (dose: 200.0 mg/kg/injection, schedule: Q01DX005 (ip), vehicle: saline): 125 % of control [4 of 6 alive]

CC(=O)Nc1ccc(N=NN(C)C)cc1
survivor count (dose: 50.0 mg/kg/injection, schedule: Q01DX001 (ip), vehicle: saline with Tween-80): 0 of 10
survivor count (dose: 100.0 mg/kg/injection, schedule: Q01DX001 (ip), vehicle: saline with Tween-80): 0 of 10
survivor count (dose: 200.0 mg/kg/injection, schedule: Q01DX001 (ip), vehicle: saline with Tween-80): 0 of 10
survivor count (dose: 400.0 mg/kg/injection, schedule: Q01DX001 (ip), vehicle: saline with Tween-80): 0 of 10

CN(C)CCCCCO
survivor count [8]: 6 of 6
survivor count [11]: 4 of 6

CCOC(=O)c1ccc(N(CC(O)CN)S(=O)(=O)c2ccc(C)cc2)cc1 (stereo unspecified)
survivor count [8]: 0 of 6 and 4 of 6
survivor count [9]: 0 of 6
survivor count [10]: 0 of 6

CC[CH2][Sn]([CH2]CC)([CH2]CC)[CH2]Cc1ccncc1
survivor count [5]: 0 of 3
survivor count [6]: 0 of 3
survivor count [7]: 0 of 3

CCOC(=O)c1cnc(SC)nc1Nc1ccccc1F
survivor count [11]: 6 of 6

COC(=O)C[CH2][Sn]([Br])([Br])[c]1ccccc1
survivor count [6]: 0 of 3
survivor count [7]: 0 of 3

CN(C)CCC(=O)c1ccc(Cl)cc1
survivor count (dose: 200.0 mg/kg/injection, schedule: Q01DX009 (ip), vehicle: saline): 1 of 3 and 2 of 6
survivor count [12]: 0 of 6
survivor count (dose: 400.0 mg/kg/injection, schedule: Q04DX002 (ip), vehicle: saline): 0 of 3 and 0 of 6

OCCN(CCO)CCN1c2ccccc2Sc2ccccc21
survivor count [12]: 2 of 4

CC(=O)ON1C(=O)c2ccccc2C1=O
survivor count [12]: 1 of 4

CN(N=O)C(=O)NCCCCNC(=O)N(C)N=O
T/C (dose: 100.0 mg/kg/injection, schedule: Q01DX Z (ip), vehicle: carboxymethylcellulose (CMC)): 135 % of control
T/C (dose: 150.0 mg/kg/injection, schedule: Q01DX Z (ip), vehicle: carboxymethylcellulose (CMC)): 145 % of control
T/C (dose: 300.0 mg/kg/injection, schedule: Q01DX Z (ip), vehicle: carboxymethylcellulose (CMC)): 148 % of control

Cc1ccccc1SC(=O)Nc1cccc(Cl)c1Cl
survivor count (dose: 400.0 mg/kg/injection, schedule: Q01DX009 (ip), vehicle: Klucel (hydroxypropylcellulose) (HPC)): 2 of 6
